# Source: PubChem BioAssay AID248 (DTP/NCI, 2004)
# The list does not hold the whole screen: it gathers tests that were run many times, whatever their T/C, doses with no T/C, and many T/C values between a quarter and a half above the control. Further doses and runs are listed elsewhere. T/C is the treated group as % of the vehicle group. Some doses have a count of surviving animals in place of a T/C: the source holds a T/C of zero for them, seemingly a mark for toxic or unscored doses. Some survivor counts are full or nearly so, which does not show that the dose was tolerated: survival well below the control is almost never listed, so the zero probably covers shortened survival too. Survivors were counted at the toxicity check, usually on the fifth day, unless a day is given; later deaths do not show. Schedules are NCI's codes, read here as Q, the interval in days (D) or hours (H), X, the number of doses. For survival time, this PubChem deposit counts one and a half times the control or more as active, and values a quarter to a half above the control carry no call in these data; other NCI protocols may use other cut-offs. Some doses were run more than once; the values are given in rising order. Some T/C values are followed by the survivors on the day toxicity was checked, most often the fifth; without a count, all were alive then.
# Tested on: L1210 leukemia ip in BDF1 mice, survival T/C
# Assay: NCI In Vivo Anticancer Drug Screen. Data for tumor model L1210 Leukemia (intraperitoneal) in B6D2F1 (BDF1) mice
# Conditions: T/C endpoint: mean survival time, higher T/C = longer survival
# [1] = dose: 10.0 mg/kg/injection, schedule: Q01DX009 (ip), vehicle: saline
# [2] = dose: 10.6 mg/kg/injection, schedule: Q04DX003 (ip), vehicle: saline
# [3] = dose: 16.0 mg/kg/injection, schedule: Q01DX001 (ip), vehicle: saline
smiles,measurement,setting,value
OC(C1CO1)C(O)C1CO1 (stereo not drawn),T/C,"dose: 0.25 mg/kg/injection, schedule: Q03HX024 (ip), vehicle: saline",127 % of control
same,T/C,"dose: 0.5 mg/kg/injection, schedule: Q03HX016 (ip), vehicle: saline",132 % of control
same,T/C,"dose: 0.5 mg/kg/injection, schedule: Q03HX024 (ip), vehicle: saline",137 % of control [9 of 10 alive]
same,T/C,"dose: 0.8 mg/kg/injection, schedule: Q01DX009 (ip), vehicle: saline",125 and 144 % of control
same,T/C,"dose: 1.0 mg/kg/injection, schedule: Q01DX009 (ip), vehicle: saline",130 % of control
same,T/C,"dose: 1.0 mg/kg/injection, schedule: Q03HX008 (ip), vehicle: saline",147 % of control
same,T/C,"dose: 1.08 mg/kg/injection, schedule: Q01DX009 (ip), vehicle: water",128 % of control
same,T/C,"dose: 1.6 mg/kg/injection, schedule: Q01DX009 (ip), vehicle: saline",127 % of control
same,T/C,"dose: 1.8 mg/kg/injection, schedule: Q01DX009 (ip), vehicle: saline",141 % of control
same,T/C,"dose: 1.8 mg/kg/injection, schedule: Q01DX009 (ip), vehicle: water",147 % of control
same,T/C,"dose: 2.0 mg/kg/injection, schedule: Q01DX009 (ip), vehicle: saline, evaluated on day 30","141, 150, 157 % of control"
same,T/C,"dose: 2.0 mg/kg/injection, schedule: Q01DX009 (ip), vehicle: saline, evaluated on day 60",159 % of control
same,T/C,"dose: 2.0 mg/kg/injection, schedule: Q01DX009 (oral), vehicle: saline",126 % of control
same,T/C,"dose: 2.0 mg/kg/injection, schedule: Q01DX009 (sc), vehicle: saline",127 % of control
same,T/C,"dose: 2.0 mg/kg/injection, schedule: Q04DX003 (ip), vehicle: saline, evaluated on day 30",130 % of control
same,T/C,"dose: 2.0 mg/kg/injection, schedule: Q04DX003 (ip), vehicle: saline, evaluated on day 60",141 % of control
same,T/C,"dose: 2.2 mg/kg/injection, schedule: Q01DX001 (ip), vehicle: saline",128 and 130 % of control
same,T/C,"dose: 4.0 mg/kg/injection, schedule: Q01DX001 (ip), vehicle: saline",134 % of control
same,T/C,"dose: 4.0 mg/kg/injection, schedule: Q01DX009 (oral), vehicle: saline",135 % of control
same,T/C,"dose: 4.0 mg/kg/injection, schedule: Q01DX009 (sc), vehicle: saline",128 % of control
same,survivor count,"dose: 4.0 mg/kg/injection, schedule: Q03HX008 (ip), vehicle: saline",1 of 10
same,survivor count,"dose: 4.0 mg/kg/injection, schedule: Q03HX016 (ip), vehicle: saline",2 of 10
same,survivor count,"dose: 4.0 mg/kg/injection, schedule: Q03HX024 (ip), vehicle: saline",6 of 10
same,T/C,"dose: 4.6 mg/kg/injection, schedule: Q01DX001 (ip), vehicle: saline",145 % of control
same,T/C,"dose: 5.0 mg/kg/injection, schedule: Q01DX001 (ip), vehicle: saline",149 % of control
same,T/C,"dose: 5.0 mg/kg/injection, schedule: Q01DX009 (ip), vehicle: saline",149 % of control
same,T/C,"dose: 6.25 mg/kg/injection, schedule: Q01DX009 (ip), vehicle: water, evaluated on day 5",142 % of control
same,T/C,"dose: 6.25 mg/kg/injection, schedule: Q01DX009 (ip), vehicle: water, evaluated on day 30",142 % of control
same,survivor count,"dose: 6.4 mg/kg/injection, schedule: Q01DX009 (ip), vehicle: saline",6 of 6
same,survivor count,"dose: 7.0 mg/kg/injection, schedule: Q01DX009 (ip), vehicle: saline",6 of 6
same,T/C,"dose: 7.5 mg/kg/injection, schedule: Q01DX001 (ip), vehicle: saline",133 % of control
same,T/C,"dose: 8.0 mg/kg/injection, schedule: Q01DX001 (sc), vehicle: saline",125 % of control
same,survivor count,"dose: 8.0 mg/kg/injection, schedule: Q01DX009 (ip), vehicle: saline",10 of 10
same,survivor count,"dose: 8.0 mg/kg/injection, schedule: Q01DX009 (oral), vehicle: saline",7 of 10
same,survivor count,"dose: 8.0 mg/kg/injection, schedule: Q01DX009 (sc), vehicle: saline",5 of 10
same,survivor count,"dose: 8.0 mg/kg/injection, schedule: Q03HX008 (ip), vehicle: saline",1 of 10
same,survivor count,"dose: 8.0 mg/kg/injection, schedule: Q03HX016 (ip), vehicle: saline",0 of 10
same,T/C,"dose: 8.0 mg/kg/injection, schedule: Q04DX003 (ip), vehicle: saline",130 % of control
same,survivor count,"dose: 8.4 mg/kg/injection, schedule: Q01DX009 (ip), vehicle: water",8 of 8
same,T/C,"dose: 10.0 mg/kg/injection, schedule: Q01DX001 (ip), vehicle: saline, evaluated on day 30",146 and 221 % of control
same,T/C,"dose: 10.0 mg/kg/injection, schedule: Q01DX001 (ip), vehicle: saline, evaluated on day 60","148, 195, 209, 210, 211, 224 % of control"
same,T/C,[1],142 % of control
same,survivor count,[1],3 of 6
same,T/C,"dose: 10.0 mg/kg/injection, schedule: Q04DX003 (ip), vehicle: saline",145 % of control
same,survivor count,"dose: 10.6 mg/kg/injection, schedule: Q01DX009 (ip), vehicle: saline",5 of 6
same,T/C,[2],134 % of control
same,survivor count,[2],4 of 6
same,T/C,"dose: 10.6 mg/kg/injection, schedule: Q08DX002 (ip), vehicle: saline",149 % of control [5 of 6 alive]
same,T/C,"dose: 12.5 mg/kg/injection, schedule: Q01DX001 (ip), vehicle: saline","150, 166, 290, 293, 295, 378 % of control"
same,survivor count,"dose: 14.0 mg/kg/injection, schedule: Q01DX001 (ip), vehicle: saline",3 of 6
same,survivor count,"dose: 14.0 mg/kg/injection, schedule: Q01DX009 (ip), vehicle: water",7 of 8
same,T/C,"dose: 15.0 mg/kg/injection, schedule: Q01DX001 (ip), vehicle: saline, evaluated on day 30",201 % of control
same,T/C,"dose: 15.0 mg/kg/injection, schedule: Q01DX001 (ip), vehicle: saline, evaluated on day 60","228, 240, 370, 373, 387, 395 % of control"
same,survivor count,"dose: 15.0 mg/kg/injection, schedule: Q01DX009 (ip), vehicle: saline",6 of 6
same,T/C,[3],126 % of control
same,survivor count,[3],4 of 6
same,survivor count,"dose: 16.0 mg/kg/injection, schedule: Q01DX001 (oral), vehicle: saline",3 of 10
same,survivor count,"dose: 16.0 mg/kg/injection, schedule: Q01DX009 (ip), vehicle: saline",5 of 6
